Broadly, the AC50 is the concentration giving half of the maximal activity seen.

Some of the results follow. The main result of the screen is listed elsewhere. These columns were measured beside it and carry no call. The list favours compounds with an active or inconclusive main result. Words in brackets tell the shape of the fitted curve; partial curves, single points and poor fits give uncertain potencies.

The assay is described as follows: IkB Signaling. The following applies: ABC-DLBCL IkBa-CBG/CBR dual luciferase ratio (green luciferase fused to IkBa over red control in OCI-Ly3 lymphoma cells), 4 h; measured here: control luc red channel unless noted. The procedure, abridged:
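In this assay, an IκBα–CBG68 fusion accumulates when IKK-driven degradation is blocked; native CBR normalizes for cell number. OCI-Ly3 cells were treated 4 h with compound and doxycycline, then green and red light read after Chroma-Glo addition.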
Turning to `CC(C)OC(=O)CSc1ncnc2c1cnn2-c1ccccc1`, the half-maximal activity concentration (AC50) is 39.8 µM [falling, single point].

With `COc1ccc(CCCc2nnc(SCC(=O)Nc3ccc(OC)cc3)o2)cc1`, the AC50 is 25.1 µM [falling, single point].

As to `CN1C(=O)Cc2cc(S(=O)(=O)CCC(=O)Nc3ccc(F)c(Cl)c3)ccc21`, the AC50 was 39.8 µM [falling, single point].

As to `CCc1ccccc1Nc1cc(C(=O)NC(C)c2ccccc2)c2ccccc2n1` (configuration not stated), the AC50 is 5.01 µM [falling, partial curve].

For the molecule `CCCc1nn2c(=O)cc(COC(=O)c3ccccc3NC(=O)c3ccc(Cl)cc3)nc2s1`, the AC50 is 0.501 µM [falling, partial curve].

With `CCOc1ccc(NC(=O)CN2CCCN(Cc3cc(C)ccc3C)S2(=O)=O)cc1`, the concentration at half-maximal activity (AC50) was 15.8 µM [falling, partial curve].

Turning to `Cn1c(-c2ccc(F)cc2)cnc1NCc1ccccc1`, the AC50 was 15.8 µM [falling, partial curve].

On to `COc1ccc(Cl)cc1-n1nnc(-c2nsc(NC(=O)c3ccccc3Cl)n2)c1C`, for which the AC50 is 39.8 µM [falling, single point].

Turning to `COc1ccc(C2(CNC(=O)C(=O)Nc3ccc(F)cc3)CCCC2)cc1OC`, the AC50 was 1.58 µM [falling, full curve].

As for `Cc1ccc(NS(=O)(=O)c2ccc3c(c2)CCCN3C(=O)C2CCC2)c(C)c1`, the AC50 was 31.6 µM [falling, partial curve, poor fit].

In the case of `O=C(/C=C/N1CCOCC1)c1ccc(-c2ccccc2)cc1`, the AC50 is 10 µM [falling, partial curve].

For the molecule `COc1ccc2[nH]c3c(c2c1)CN(C)CC3`, the concentration at half-maximal activity (AC50) is 25.1 µM [falling, partial curve].

Take `CS(=O)(=O)N(Cc1ccco1)CC(O)Cn1c2ccccc2c2ccccc21` (configuration not stated): the concentration at half-maximal activity (AC50) was 12.6 µM [falling, partial curve].

For `CCN(CC)C(=O)Cn1cc(SCC(=O)Nc2ccccc2C)c2ccccc21`, the concentration at half-maximal activity (AC50) was 39.8 µM [falling, single point].

`Cc1cccc(-c2nc(SCCCOc3ccc(Cl)c(C)c3)n3[nH]c(=O)cc3n2)c1`: the AC50 was 3.98 µM [rising, full curve].

For the molecule `CCOc1ccc(NC(=O)c2ccccc2O)cc1`, the concentration at half-maximal activity (AC50) is 5.01 µM [falling, partial curve].

Regarding `CCc1c(C)nc2ncnn2c1N1CCC(C(=O)N2CCN(c3ccc(F)cc3)CC2)CC1`, the AC50 was 20 µM [falling, partial curve].

In the case of `Cc1ccc(C)n1-c1nnc(N2CCCC(C(=O)NCc3cccc(Cl)c3)C2)s1` (configuration not stated), the AC50 is 31.6 µM [falling, single point].

For `Cc1ccc(/C=C/c2onc(C)c2S(=O)(=O)N2CCC(C(=O)NCC(C)c3ccccc3)CC2)cc1` (configuration not stated), the AC50 was 0.00631 µM [falling, full curve].

For the molecule `O=C(Nc1ccc2c(c1)OCCO2)C1CCCN(S(=O)(=O)c2cccs2)C1` (configuration not stated), the AC50 is 31.6 µM [falling, partial curve].

For `Cc1ccc(Cl)cc1N1CCN(S(=O)(=O)c2ccc3c(c2)CCCN3C(=O)C2CCC2)CC1`, the AC50 was 0.00631 µM [falling, full curve, poor fit].

For the molecule `Cc1ccc(CN2C(=O)c3oc4ccc(C)cc4c(=O)c3C2c2ccc(O)cc2)cc1` (configuration not stated), the AC50 was 3.16 µM [rising, single point].

On to `COc1cc(OC)c(NC(=O)Cn2c(=O)oc3cc(S(=O)(=O)N4CCCC4)ccc32)cc1Cl`, for which the half-maximal activity concentration (AC50) was 7.94 µM [falling, partial curve].

Turning to `COc1ccc(CCNS(=O)(=O)c2ccc(C(=O)NCc3ccco3)cc2)cc1OC`, the AC50 was 1 µM [rising, full curve, poor fit] [measured here: IkB-luc green channel].

Regarding `Cc1cc(Cl)ccc1NC(=O)CN(c1ccccc1Br)S(C)(=O)=O`, the half-maximal activity concentration (AC50) is 31.6 µM [falling, single point].

Consider `COc1ccc(CN2CCN(c3ncnc4sc5c(c34)CC(C)CC5)CC2)cc1F` (configuration not stated), for which the AC50 was 20 µM [falling, single point].

In the case of `COc1ccccc1N1CCN(CCCNC(=O)c2cnn(-c3ccccc3)c2C2CCN(C(=O)OC(C)(C)C)CC2)CC1`, the AC50 was 25.1 µM [falling, partial curve].

On to `COCCCNc1oc(-c2ccc(COc3ccc(Cl)cc3)o2)nc1C#N`, for which the half-maximal activity concentration (AC50) was 39.8 µM [falling, single point].

Take `CCCCCNC(=O)CCCCCn1c(=O)[nH]c2ccsc2c1=O`: the AC50 was 0.0316 µM [falling, full curve, poor fit].

Turning to `CCOc1ccc(C2CC(=O)Nc3c2c(=O)nc(SCc2ccccc2C)n3C)cc1OC` (configuration not stated), the AC50 is 25.1 µM [falling, single point].

`COC(=O)c1ccccc1NC(=O)Cn1c(-c2nonc2N)nc2ccccc21`: the AC50 is 1.26 µM [rising, partial curve] [measured here: IkB-luc green channel].

Consider `O=C(NCc1ccccn1)c1cc2ccccc2oc1=O`, for which the AC50 is 12.6 µM [falling, partial curve].

Turning to `Cc1cccn2c(=O)c3cc(C(=O)NC(C)c4ccccc4)c(=N)n(CCCO)c3nc12` (configuration not stated), the half-maximal activity concentration (AC50) is 31.6 µM [falling, single point].

On to `COC(=O)c1ccc(OCC2c3cc(OC)c(OC)cc3CCN2C(=O)c2ccc(F)cc2)cc1` (configuration not stated), for which the concentration at half-maximal activity (AC50) is 39.8 µM [falling, single point].

As for `O=C(Cn1nnc(-c2ccccc2Cl)n1)Nc1ccc(Br)cc1`, the AC50 was 39.8 µM [falling, single point].

Turning to `Cc1c2ccccc2c(CSC(=N)N)c2ccccc12`, the concentration at half-maximal activity (AC50) was 3.16 µM [falling, partial curve].

As for `COc1ccc(C(=O)NCC(c2ccc(N(C)C)cc2)N2CCc3ccccc32)c(OC)c1` (configuration not stated), the AC50 was 20 µM [falling, single point].

As to `COc1ccc(S(=O)(=O)NCC(c2ccco2)N2CCOCC2)cc1OC` (configuration not stated), the AC50 was 0.158 µM [rising, full curve, poor fit].

Turning to `Cc1ccc(NC(=O)CCc2c(C)nc3cc(-c4ccccc4)nn3c2C)cc1F`, the AC50 is 0.398 µM [falling, full curve].

For `CCN1C(=O)c2ccccc2Sc2ccc(NC(=O)c3ccc(Cl)cc3)cc21`, the half-maximal activity concentration (AC50) was 39.8 µM [falling, single point].

In the case of `CCOC(=O)Nc1ccc2c(c1)N(C(=O)N1CCN(C)CC1)c1ccccc1S2`, the concentration at half-maximal activity (AC50) is 10 µM [falling, partial curve].

On to `O=C(Cc1ccccc1)Nc1nc(-c2cccs2)cs1`, for which the AC50 is 20 µM [falling, single point].

With `COc1ccc(C(=O)NCCn2cc(SCC(=O)Nc3nnc(C)s3)c3ccccc32)cc1`, the AC50 is 20 µM [falling, partial curve].

As to `CC(C)OC(=O)CSc1nnc(-c2ccc(O)cc2)n1Cc1ccccc1`, the AC50 is 25.1 µM [falling, single point].

Consider `CCOc1ccc(CN2CCc3nc(Nc4ccc(OC)cc4OC)ncc3C2)cc1`, for which the AC50 was 10 µM [falling, partial curve].

As for `CCN(CC)CCCNC(=O)c1nn(C)c2c1CS(=O)(=O)c1ccccc1-2`, the AC50 is 15.8 µM [falling, partial curve].

For the molecule `Cc1ccccc1Cn1c(CN2CCC(C(=O)NCCc3ccccc3)CC2)cc2ccccc21`, the concentration at half-maximal activity (AC50) was 1.26 µM [rising, full curve, poor fit].

On to `Cc1ccc2sc(NC(=O)c3ccc4c(c3)OCCO4)nc2c1C`, for which the AC50 was 20 µM [falling, partial curve].

For the molecule `COc1ccc2c(c1)c1c(c(=O)n(-c3ccc(F)c(Cl)c3)c(=O)n1Cc1ccccc1C)n2C`, the AC50 was 0.0631 µM [rising, full curve].

With `CCSC1=NC2(CCN(C(=O)NC3CCCCC3)CC2)N=C1c1ccc(Cl)cc1`, the AC50 is 25.1 µM [falling, single point].

As to `CCN(Cc1ccccc1)C(=O)Cn1c(=O)n(-c2ccc(C)c(C)c2)c(=O)c2c(C)c(C)sc21`, the AC50 is 7.94 µM [falling, partial curve].

Regarding `COc1ccc(CNc2oc(-c3ccc(COc4ccccc4C)o3)nc2C#N)cc1`, the half-maximal activity concentration (AC50) is 3.98 µM [falling, full curve].

As to `O=C(Nc1nccs1)c1cc2sccc2n1Cc1ccc(F)cc1`, the concentration at half-maximal activity (AC50) was 1 µM [rising, partial curve] [measured here: IkB-luc green channel].

`COc1cccc(C(=O)Nc2cccc(-c3cn4c(C)csc4n3)c2)c1OC`: the AC50 is 39.8 µM [falling, single point].

For the molecule `O=C(Nc1cccc(Cl)c1)c1cc2c(=O)[nH]c3ccccc3c2s1`, the half-maximal activity concentration (AC50) is 0.01 µM [falling, full curve].

For the molecule `Cc1cccc(N2CCN(C(=O)CCn3c(=O)c4cccn4c4cccnc43)CC2C)c1` (configuration not stated), the half-maximal activity concentration (AC50) is 15.8 µM [falling, partial curve].

With `COc1cc2c(c(OC)c1)C(c1cccc(OC)c1OC)CC(=O)N2` (configuration not stated), the AC50 was 25.1 µM [rising, partial curve].

On to `CC1(C)CCC2=C(O1)c1ccccc1C(=O)C2=O`, for which the AC50 is 31.6 µM [rising, partial curve, poor fit] [measured here: IkB-luc green channel].

Regarding `Cc1nnc(N2CCCC(C(=O)NCCc3ccc(Cl)cc3)C2)c2nn(-c3ccccc3)c(C)c12` (configuration not stated), the AC50 was 20 µM [falling, partial curve].

With `CCOc1ccc(-c2nn(CC(=O)NC3CCCC3)c3c2cnc2ccc(F)cc23)cc1`, the AC50 was 0.631 µM [rising, full curve, poor fit].

In the case of `O=C(NCCc1ccccc1Cl)c1ccc2c(c1)nc1n2CCCCC1`, the half-maximal activity concentration (AC50) is 39.8 µM [falling, single point].

With `Cc1ccc(Cl)cc1N1CCN(Cc2nnc(-c3ccc4c(c3)OCO4)o2)CC1`, the AC50 was 25.1 µM [falling, partial curve].

(Values after PubChem BioAssay AID445 (National Center for Advancing Translational Sciences (NCATS), 2006).)
